PubChem BioAssay AID1224830, NIAID | 2016

Assay: 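Genes whose knock-down alters the TNF-alpha reporter response to LPS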 (primary screen)
Cell system: human THP-1 monocytic leukaemia cells, TNF dual-luciferase reporter clone, PMA-differentiated to macrophage-like cells
Knock-down reagent: siRNA pool against human genes, 50 nM
Time to read-out: LPS for 4 h, given about 3 days after siRNA transfection
Treatment: bacterial LPS (TLR4 ligand), 10 ng/ml
Measurement: 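Ratio of firefly to renilla light, scaled to the plate median and expressed as a robust z-score per replicate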
Scale: TNF reporter robust z-score: higher = stronger TNF reporter response to LPS
Call rule: 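Each well counts as active if its z-score is over 2.8 or under -1.5; controls are left without a call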
Here is one part, drawn at random, of about 18,000 reagents. Over the whole deposit, about 2,900 (16%) were called active. 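Calls are made per well; low scores hint the gene aids the LPS response, high scores that it dampens it.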 A number with no mark means an inactive call. Repeated entries: four replicate wells of each siRNA pool.

After knock-down of ZNF79 (zinc finger protein 79), the screen gave TNF reporter robust z-score 1.82.
ZNF79 (zinc finger protein 79) scored TNF reporter robust z-score 0.11.
ZNF79 (zinc finger protein 79) gave TNF reporter robust z-score 0.16.
ZNF79 (zinc finger protein 79) gave TNF reporter robust z-score 0.33.
Knock-down of ZNF490 (zinc finger protein 490) resulted in: TNF reporter robust z-score 0.14.
For ZNF490 (zinc finger protein 490) the deposit lists TNF reporter robust z-score 0.01.
With knock-down of ZNF490 (zinc finger protein 490), the record shows TNF reporter robust z-score 0.09.
After knock-down of ZNF490 (zinc finger protein 490), the screen gave TNF reporter robust z-score -0.73.

Ordered by “TNF reporter robust z-score” (high to low): some entries from above
ZNF79 (zinc finger protein 79) | TNF reporter robust z-score: 0.33
ZNF79 (zinc finger protein 79) | TNF reporter robust z-score: 0.16

The results go on.
DDX59 (DEAD-box helicase 59) scored TNF reporter robust z-score 1.69.
Depletion of DDX59 (DEAD-box helicase 59) gave: TNF reporter robust z-score 3.22 (active).
Depletion of DDX59 (DEAD-box helicase 59) resulted in: TNF reporter robust z-score 1.08.
With knock-down of DDX59 (DEAD-box helicase 59) the results were TNF reporter robust z-score 2.58.
After knock-down of ACYP2 (acylphosphatase 2), the screen gave TNF reporter robust z-score 0.32.
Against ACYP2 (acylphosphatase 2) the deposit lists TNF reporter robust z-score 1.14.
Against ACYP2 (acylphosphatase 2), the entry reads TNF reporter robust z-score 0.89.
ACYP2 (acylphosphatase 2) showed TNF reporter robust z-score 0.
Knock-down of PLEKHM1 (pleckstrin homology and RUN domain containing M1) came out at: TNF reporter robust z-score -0.41.
With knock-down of PLEKHM1 (pleckstrin homology and RUN domain containing M1) the results were TNF reporter robust z-score 0.37.
PLEKHM1 (pleckstrin homology and RUN domain containing M1) gave TNF reporter robust z-score -1.02.
With knock-down of PLEKHM1 (pleckstrin homology and RUN domain containing M1), the screen gave TNF reporter robust z-score -0.89.
